The source of these data is patent US20100040616A1 (published 2010).

In assay [1] the target is recombinant human CD127 extracellular domain (CD127 ECD) (human). Kind of assay: Biacore blocking assay: 10 ug/mL CD127 ECD pre-incubated with 6A3 and injected over immobilised human IL-7 (the blocked ligand). A general note: Surface plasmon resonance follows binding to a sensor surface in real time, without labels.
The target is the same in assay [2]. Kind of assay: Biacore blocking assay: CD127 ECD pre-incubated with antibody and injected over immobilised human IL-7; inhibition ratio = 1 - RU(sample)/RU(ECD).
The target is the same in assay [3]. As to the kind of experiment: SPR (profile summary).
The target is the same in assay [4]. As to the kind of experiment: ELISA: recombinant human CD127 ECD coated at 5 ug/ml, 9B7 hybridoma material titrated, HRP goat anti-mouse IgG detection. Background: In an ELISA, binding on a coated surface is turned into a signal by an enzyme label.
Assay [5] shares this target. Kind of assay: Biacore blocking assay: 10 ug/mL CD127 ECD pre-incubated with 6C5 and injected over immobilised human IL-7 (the blocked ligand).

No constants are given. Whether binding was seen depends on the method and setting. A result given as binding can be weak or reduced; the word gives no strength.

B1: mAb 6A3 (murine anti-human CD127 monoclonal antibody) (antibody, mouse IgG1, V domains shown)
VH: DVQLQESGPGLVKPSQSLSLTCTVTGYSITTDYAWNWIRQFPGNKLEWMGYIFYSGSTTYTPSLKSRISITRDTSKNQFFLQLNSVTTEDTATYYCARGGYDVNYFDYWGQGTTLTVSS
VL: DIQMTQSPASQSASLGESVTITCLASQTIGAWLAWYQQKPGKSPQLLIYAATRLADGVPSRFSGSGSGTKFSFKISSLQAEDFVSYYCQQFFSTPWTFGGGTKLEIK
With B1, the binding entry in assay [1] and in assay [2] was “binds” each time.

B2: mAb 9B7 (murine anti-human CD127 monoclonal antibody) (antibody, IgG1, V domains shown)
VH: QVQLQESGPGLVAPSQSLSITCTVSGFSLSRYNVHWVRQPPGKGLEWLGMIWDGGSTDYNSALKSRLSITKDNSKSQVFLKMNSLQTDDTAMYYCARNRYESGMDYWGQGTTVTVSS
VL: DIVMTQTPSSLTVTAGEKVTMSCKSSQSLLNSGNRKNYLTWYQQKPGQSPKLLIYWASTRESGVPDRFTGSGSGTDFTLIISSVQAEDLAVYYCQNDYTYPFTFGSGTKLEIKR
Turning to B2, the binding entry in assay [3] and in assay [4] was “binds” in each case.

B3: mAb 6C5 (murine anti-human CD127 monoclonal antibody) (antibody, mouse IgG1, V domains shown)
VH: EVKLLESGGGLVQPGGSLKLSCAASGFAFSAYWMSWVRQAPGKGLEWIGEINPDSSTINCTPSLKDKFIISRDNAKNTLSLQMNKVRSEDTALYYCARRLRPFWYFDVWGAGTTVTVSS
VL: DVLMTQTPLSLPVSLGDQASISCRSSQSIVQSNGNTYLEWYLQKPGQSPKLLIYKVSNRFSGVPDRFSGSGSGTDFTLKISRVEAEDLGVYYCFQGSHVPRTFGGGTKLEIK
notes: also called Antibody 6C5
For B3, the binding result in assay [5] and in assay [2] was “binds” in each case.
